PubChem BioAssay AID1259331 – Drosophila RNAi Screening Center – 2017
This is one part, drawn at random, of about 3,100 deposited reagents. 126 of all reagents (4.1%) were called active. 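Calls are per reagent; zinc was so toxic that few knock-downs lowered ATP further, so most hits raise ATP.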 Raw values are not corrected between plates. A number with no mark means an inactive call. The numbers tell different reagents against one gene apart. The record does not give: the amount of reagent.

- Test: 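Genes whose knock-down changes cell survival under toxic zinc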 (primary screen)
- System: Drosophila S2R+ cells
- Reagent: long dsRNA against Drosophila genes
- Time to read-out: 5 days (4 days knock-down, then 1 day zinc)
- Challenge: zinc chloride at 15 mM final level for 1 day
- Read-out: 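Luminescent ATP assay standing in for viability; Z score is the mean over three replicate plates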
- Scale: mean Z score: higher = more ATP than other wells, better survival under zinc; ATP luminescence: higher = more ATP, more viable cells
- Active means: 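a reagent is called a hit when its Z score is above 1.5 or below -1.5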
- Calls: active = hit, ATP up or down; inactive = not a hit

no.	Target gene	dsRNA no.	mean Z score	ATP luminescence, replicate 1	ATP luminescence, replicate 2
1	Or43a	1	-0.221	74198	68332
2	Gr93d	1	0.00884	49418	47892
3	Or49b	1	-0.532	69716	66070
4	Or22b	1	-0.726	36113	37467
5	Or22b	2	0.14	63237	60735
6	CG3078	1	-0.888	47686	47223
7	CG3078	2	-0.642	45881	48509
8	blot	1	-0.575	27113	30140
9	blot	2	-0.0733	51389	55899
10	para	1	-0.828	67715	56637
11	para	2	0.212	68915	70219
12	Slc25A46a	1	0.137	46606	48629
13	Slc25A46a	2	0.123	53841	62319
14	CG1909	1	-0.425	41431	41656
15	CG1909	2	0.247	63770	61164
16	CG17991	1	0.407	70785	74861
17	Gr61a	1	-0.627	62381	60941
18	Gr61a	2	0.146	58854	57659
19	Miro	1	-0.345	42405	43382
20	Miro	2	-0.325	50601	53550
21	Gr47b	1	-0.154	38650	43301
22	Gr47b	2	-0.29	59045	55042
23	hid	1	-0.783	45508	40331
24	hid	2	-0.435	58248	54562
25	CG11438	1	0.149	71591	63221
26	CG11438	2	0.947	58969	55230
27	Yif1	1	-0.111	66291	62090
28	CG33203	1	-0.128	59226	68727
29	CG33203	2	0.643	70116	72517
30	CG33337	1	0.278	53052	67063
31	CG33337	2	0.022	57365	61695
32	CG15880	1	-0.562	37330	40963
33	CG15880	2	-0.513	49280	48653
34	CG42340	1	6.06 (active)	1.74e5	1.59e5
35	CG42340	2	-0.0138	61541	60812
36	Ir60d	1	0.047	42062	46644
37	ft	1	-0.0648	53277	57460
38	ft	2	-0.17	45968	45303
39	Gr58b	1	0.114	56722	44028
40	Gr58b	2	-0.213	54699	60292
41	CG43066	1	0.352	72158	77371
42	CG43066	2	-1.03	46760	38273
43	Dop1R1	1	-0.189	41171	40948
44	Dop1R1	2	-1.05	31335	42696
45	Dop1R1	3	-0.454	41864	55025
46	Smvt	1	0.04	65229	68229
47	Smvt	2	-0.00604	56208	61366

Targets listed so far whose target name begins with G or g:
Target gene	dsRNA no.	mean Z score	ATP luminescence, replicate 1	ATP luminescence, replicate 2
Gr93d	1	0.00884	49418	47892
Gr61a	1	-0.627	62381	60941
Gr61a	2	0.146	58854	57659
Gr47b	1	-0.154	38650	43301
Gr47b	2	-0.29	59045	55042
Gr58b	1	0.114	56722	44028
Gr58b	2	-0.213	54699	60292
